No constants are given. Whether binding was seen depends on the method and setting. In cells and extracts the contact can be indirect. Some entries that bind do so weakly or less than the wild type.

Chains of the proteins cited; added tags and fusions are not shown. Lines headed by an entry give the natural chain unless they say otherwise; changes in a name come on top. A line that says so, or that is headed by a name, gives the form on record, which may keep a tag or linker. Residues count along the entry.
UniProt Q99IB8, residues 1977-2442: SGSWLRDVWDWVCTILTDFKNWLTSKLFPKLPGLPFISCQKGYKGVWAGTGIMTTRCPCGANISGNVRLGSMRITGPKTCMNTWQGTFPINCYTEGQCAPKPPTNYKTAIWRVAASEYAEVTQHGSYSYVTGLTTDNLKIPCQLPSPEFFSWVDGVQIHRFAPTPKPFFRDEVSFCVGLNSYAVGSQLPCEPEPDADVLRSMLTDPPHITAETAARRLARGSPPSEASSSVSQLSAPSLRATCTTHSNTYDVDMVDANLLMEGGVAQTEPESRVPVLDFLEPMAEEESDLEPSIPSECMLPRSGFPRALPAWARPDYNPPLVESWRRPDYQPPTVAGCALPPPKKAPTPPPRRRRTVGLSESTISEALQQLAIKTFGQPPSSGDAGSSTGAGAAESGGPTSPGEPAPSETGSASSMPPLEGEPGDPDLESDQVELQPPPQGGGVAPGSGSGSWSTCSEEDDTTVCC
human Abl, variant b, wild type (Abl-WT) (P00519-2, form named): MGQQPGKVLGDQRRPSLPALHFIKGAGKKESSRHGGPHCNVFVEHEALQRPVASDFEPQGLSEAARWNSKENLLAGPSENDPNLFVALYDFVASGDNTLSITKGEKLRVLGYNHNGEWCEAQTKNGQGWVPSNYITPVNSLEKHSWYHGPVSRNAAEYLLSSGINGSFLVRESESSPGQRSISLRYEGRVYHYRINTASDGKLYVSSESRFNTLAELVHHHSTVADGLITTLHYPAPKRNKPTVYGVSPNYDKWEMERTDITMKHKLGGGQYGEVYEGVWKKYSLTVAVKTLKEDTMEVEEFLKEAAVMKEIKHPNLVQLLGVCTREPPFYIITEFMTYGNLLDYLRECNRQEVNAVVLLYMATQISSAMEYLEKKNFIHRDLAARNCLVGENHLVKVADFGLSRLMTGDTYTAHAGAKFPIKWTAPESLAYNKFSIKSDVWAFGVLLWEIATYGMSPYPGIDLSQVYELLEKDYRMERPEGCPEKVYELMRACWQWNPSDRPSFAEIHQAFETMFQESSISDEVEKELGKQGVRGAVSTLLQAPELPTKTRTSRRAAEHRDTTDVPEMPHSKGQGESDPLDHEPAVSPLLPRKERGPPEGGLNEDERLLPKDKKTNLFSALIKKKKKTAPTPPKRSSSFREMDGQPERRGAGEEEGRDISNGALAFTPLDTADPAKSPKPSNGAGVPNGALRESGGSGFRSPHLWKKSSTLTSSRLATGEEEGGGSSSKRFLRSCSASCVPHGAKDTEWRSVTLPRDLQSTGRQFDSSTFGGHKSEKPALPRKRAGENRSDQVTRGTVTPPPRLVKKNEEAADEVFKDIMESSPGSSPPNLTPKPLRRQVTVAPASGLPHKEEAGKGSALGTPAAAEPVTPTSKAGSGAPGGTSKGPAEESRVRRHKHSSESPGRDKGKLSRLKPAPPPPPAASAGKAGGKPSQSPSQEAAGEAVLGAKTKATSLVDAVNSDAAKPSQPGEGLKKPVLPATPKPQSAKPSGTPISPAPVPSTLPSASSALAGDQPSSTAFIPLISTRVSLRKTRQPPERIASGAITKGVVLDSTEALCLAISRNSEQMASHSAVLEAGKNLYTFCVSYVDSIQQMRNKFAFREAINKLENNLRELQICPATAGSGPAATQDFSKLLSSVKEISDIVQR

For the test, the target named is HCV nonstructural protein 5A, JFH1 strain, wild type, Myc-His tagged (NS5A-WT) (hepatitis C virus (JFH1 strain)) (UniProt Q99IB8). In words: co-IP; HEK 293T cells transiently cotransfected with Abl and NS5A-myc-His plasmids, 22 h; lysed in lysis buffer (50 mM Tris pH 7.4, 150 mM NaCl, 10 mM EDTA, 100 mM NaF, 1 mM Na3VO4, 1% Triton X-100) lacking DOC and SDS; anti-Myc mAb immunoprecipitation overnight at 4 °C, protein A-Sepharose; immunoblot with anti-Abl.

As to “human Abl, variant b, wild type (Abl-WT) (from UniProt P00519-2 1-1149) (enzyme)”, the binding result was “binds”.

The values above are taken from publication PMC8980994.
